{
  "source": "paper PMC9289666",
  "about": "“Highly Parallelized, Multicolor Optogenetic Recordings of Cellular Activity for Therapeutic Discovery Applications in Ion Channels and Disease-Associated Excitable Cells” (Frontiers in Molecular Neuroscience, 2022)",
  "origin": "cited, not measured here",
  "test_system": "Nav1.5",
  "conditions": "cited from earlier work",
  "data": [
    {"smiles": "Nc1nc2ccc(OC(F)(F)F)cc2s1", "note": "[Riluzole]", "values": [
      {"measurement": "IC50", "value": 17.6, "unit": "µM"}
    ]}
  ]
}
